Measurements reported in PubChem BioAssay AID1259254 (NCATS, 2017).
In all, the deposit lists about 59,000 reagents; this is an unselected part. In the full data, about 1,550 (2.6%) got an active call. 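G2 share is only a proxy for re-replication; each gene was hit by three separate siRNAs, and active genes were retested.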 The numbers tell different reagents against one gene apart. Further read-outs or replicates are left out here. Not stated in the record: the amount of reagent.

Test: 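Gene knock-downs that lead to re-replication, shown by excess G2 DNA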 (primary screen)
Cells: human HCT116 colorectal cancer cells
Reagents: single siRNA against human genes
Time to read-out: 3 days
Measured: 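Nuclei stained with Hoechst and imaged; cell-cycle phase assigned by DNA content; G2 share scaled per plate, non-targeting siRNA 0%, GMNN siRNA 100%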
Direction: G2 robust z-score and G2 cells, % of GMNN control: higher = more G2 cells, more excess DNA replication
Hit rule: 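An siRNA counts as active if its G2 robust z-score lies at least 5 MADs above the screen median; here such calls match roughly 38% of GMNN control or more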

Against KIF1C #1, the values are G2 robust z-score 1.24; G2 cells, % of GMNN control 11.7; inactive.
KIF1C #2 showed G2 robust z-score -1.49; G2 cells, % of GMNN control -7.52; inactive.
Against KIF1C #3, the entry reads G2 robust z-score -0.582; G2 cells, % of GMNN control -1.13; inactive.
Against EDIL3 #1, the values are G2 robust z-score 2.98; G2 cells, % of GMNN control 23.9; inactive.
Silencing of EDIL3 #2 gave: G2 robust z-score -0.0611; G2 cells, % of GMNN control 2.54; inactive.
Depletion of EDIL3 #3 resulted in: G2 robust z-score 0.212; G2 cells, % of GMNN control 4.46; inactive.
With knock-down of MRFAP1L1 #1 the results were G2 robust z-score -0.331; G2 cells, % of GMNN control 0.636; inactive.
For MRFAP1L1 #2 the deposit lists G2 robust z-score -0.000354; G2 cells, % of GMNN control 2.96; inactive.
MRFAP1L1 #3 scored G2 robust z-score -0.811; G2 cells, % of GMNN control -2.74; inactive.
Silencing of COL12A1 #1 resulted in: G2 robust z-score -0.619; G2 cells, % of GMNN control -1.38; inactive.
With knock-down of COL12A1 #2 the results were G2 robust z-score -0.746; G2 cells, % of GMNN control -2.28; inactive.
COL12A1 #3 gave G2 robust z-score 1.88; G2 cells, % of GMNN control 16.2; inactive.
Against CBX2 #1 the deposit lists G2 robust z-score -0.456; G2 cells, % of GMNN control -0.242; inactive.
CBX2 #2 showed G2 robust z-score -0.735; G2 cells, % of GMNN control -2.2; inactive.
After knock-down of CBX2 #3, the record shows G2 robust z-score 0.545; G2 cells, % of GMNN control 6.8; inactive.

4 entries already listed, ordered by “G2 robust z-score”, descending:
EDIL3 #1 → G2 robust z-score: 2.98; G2 cells, % of GMNN control: 23.9; call: inactive
KIF1C #1 → G2 robust z-score: 1.24; G2 cells, % of GMNN control: 11.7; call: inactive
KIF1C #3 → G2 robust z-score: -0.582; G2 cells, % of GMNN control: -1.13; call: inactive
KIF1C #2 → G2 robust z-score: -1.49; G2 cells, % of GMNN control: -7.52; call: inactive

Additional reagents follow:
LGALS1 #1 showed G2 robust z-score 0.0885; G2 cells, % of GMNN control 3.59; inactive.
Silencing of LGALS1 #2 came out at: G2 robust z-score 0.568; G2 cells, % of GMNN control 6.96; inactive.
LGALS1 #3 gave G2 robust z-score 0.329; G2 cells, % of GMNN control 5.28; inactive.
KLF3 #1 gave G2 robust z-score 1.5; G2 cells, % of GMNN control 13.5; inactive.
Against KLF3 #2 the deposit lists G2 robust z-score -0.656; G2 cells, % of GMNN control -1.65; inactive.
With knock-down of KLF3 #3 the results were G2 robust z-score -0.702; G2 cells, % of GMNN control -1.97; inactive.
With knock-down of FOSL1 #1, the record shows G2 robust z-score 0.971; G2 cells, % of GMNN control 9.8; inactive.
FOSL1 #2 showed G2 robust z-score -0.998; G2 cells, % of GMNN control -4.05; inactive.
FOSL1 #3 gave G2 robust z-score -1.04; G2 cells, % of GMNN control -4.32; inactive.
